This is one part of the list. Small differences around the control level are noise.
Compound: CN[C@@H]1C[C@H]2O[C@@](C)([C@@H]1OC)n1c3ccccc3c3c4c(c5c6ccccc6n2c5c31)C(=O)NC4 [staurosporine]
Test: log2 fold change of tryptic peptide abundance, ligand vs vehicle (limited proteolysis) (log2 ratio); higher = more trypsin-susceptible (destabilized)
Settings: ligand concentration: 20 uM; sample: mouse liver crude lysate; replicate design: treated separately

By UniProt entry, the sequences of proteins in these tests, tags left out. Where a name states a change or a piece, a line headed by the entry shows the natural chain unless it says otherwise.
UniProt Q9R0G6: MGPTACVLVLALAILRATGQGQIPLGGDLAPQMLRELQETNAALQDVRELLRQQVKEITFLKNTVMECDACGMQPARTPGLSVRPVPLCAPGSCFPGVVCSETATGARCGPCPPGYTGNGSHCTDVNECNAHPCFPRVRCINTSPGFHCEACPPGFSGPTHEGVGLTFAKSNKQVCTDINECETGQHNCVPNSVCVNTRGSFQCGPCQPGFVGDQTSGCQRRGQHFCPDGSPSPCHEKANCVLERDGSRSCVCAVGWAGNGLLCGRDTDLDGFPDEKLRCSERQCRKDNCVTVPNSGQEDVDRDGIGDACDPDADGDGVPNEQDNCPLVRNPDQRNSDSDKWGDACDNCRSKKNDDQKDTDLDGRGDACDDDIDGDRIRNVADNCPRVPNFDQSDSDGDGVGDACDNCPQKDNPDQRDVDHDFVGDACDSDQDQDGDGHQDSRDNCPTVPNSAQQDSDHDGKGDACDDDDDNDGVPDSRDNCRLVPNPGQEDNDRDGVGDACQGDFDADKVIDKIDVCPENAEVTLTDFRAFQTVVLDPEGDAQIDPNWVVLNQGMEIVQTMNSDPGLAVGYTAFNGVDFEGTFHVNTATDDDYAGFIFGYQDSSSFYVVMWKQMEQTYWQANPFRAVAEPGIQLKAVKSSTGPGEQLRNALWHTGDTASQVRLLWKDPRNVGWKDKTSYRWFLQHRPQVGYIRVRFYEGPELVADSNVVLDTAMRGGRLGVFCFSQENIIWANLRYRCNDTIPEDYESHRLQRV
UniProt Q9QXE7: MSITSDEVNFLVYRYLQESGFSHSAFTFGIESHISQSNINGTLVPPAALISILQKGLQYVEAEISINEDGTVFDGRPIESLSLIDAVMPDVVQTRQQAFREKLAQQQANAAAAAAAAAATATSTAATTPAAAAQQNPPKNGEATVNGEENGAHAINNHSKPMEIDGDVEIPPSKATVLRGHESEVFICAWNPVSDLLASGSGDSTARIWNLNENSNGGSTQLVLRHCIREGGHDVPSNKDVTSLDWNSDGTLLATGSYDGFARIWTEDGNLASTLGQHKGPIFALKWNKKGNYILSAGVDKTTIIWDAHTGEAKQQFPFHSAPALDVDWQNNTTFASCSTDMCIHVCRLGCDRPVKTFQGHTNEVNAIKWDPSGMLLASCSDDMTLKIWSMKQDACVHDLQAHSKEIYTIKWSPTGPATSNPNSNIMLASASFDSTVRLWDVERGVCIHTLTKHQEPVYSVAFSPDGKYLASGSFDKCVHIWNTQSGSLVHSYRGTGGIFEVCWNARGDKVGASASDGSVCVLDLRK
UniProt Q9QYY9: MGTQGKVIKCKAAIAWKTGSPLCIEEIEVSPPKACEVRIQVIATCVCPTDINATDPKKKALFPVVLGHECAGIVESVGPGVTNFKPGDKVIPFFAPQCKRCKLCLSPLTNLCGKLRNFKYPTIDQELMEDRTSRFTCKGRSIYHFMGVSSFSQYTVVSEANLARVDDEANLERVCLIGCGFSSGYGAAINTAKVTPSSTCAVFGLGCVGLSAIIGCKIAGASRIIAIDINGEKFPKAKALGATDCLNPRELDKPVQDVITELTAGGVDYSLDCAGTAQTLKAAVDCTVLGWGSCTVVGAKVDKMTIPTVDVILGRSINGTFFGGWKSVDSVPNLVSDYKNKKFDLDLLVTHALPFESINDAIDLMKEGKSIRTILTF
UniProt Q9WV70, whole entry: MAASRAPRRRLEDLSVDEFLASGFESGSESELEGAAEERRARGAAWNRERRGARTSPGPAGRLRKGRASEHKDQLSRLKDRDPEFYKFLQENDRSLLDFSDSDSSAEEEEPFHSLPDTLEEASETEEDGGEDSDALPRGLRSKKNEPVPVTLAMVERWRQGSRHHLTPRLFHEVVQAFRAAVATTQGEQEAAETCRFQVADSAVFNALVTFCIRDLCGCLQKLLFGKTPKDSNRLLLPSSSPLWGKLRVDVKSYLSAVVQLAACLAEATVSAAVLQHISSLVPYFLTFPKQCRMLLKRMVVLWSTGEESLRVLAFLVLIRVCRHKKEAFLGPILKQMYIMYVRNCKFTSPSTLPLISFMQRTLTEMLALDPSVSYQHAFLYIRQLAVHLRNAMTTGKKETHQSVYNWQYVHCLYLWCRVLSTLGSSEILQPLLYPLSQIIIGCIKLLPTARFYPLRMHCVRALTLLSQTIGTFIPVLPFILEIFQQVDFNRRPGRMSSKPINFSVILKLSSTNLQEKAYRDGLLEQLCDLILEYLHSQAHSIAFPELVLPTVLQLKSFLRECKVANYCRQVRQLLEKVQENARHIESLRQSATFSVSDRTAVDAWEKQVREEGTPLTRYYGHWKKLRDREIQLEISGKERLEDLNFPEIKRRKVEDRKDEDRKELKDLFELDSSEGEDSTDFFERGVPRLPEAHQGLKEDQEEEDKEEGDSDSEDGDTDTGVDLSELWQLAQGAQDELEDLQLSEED
UniProt Q9WTL7: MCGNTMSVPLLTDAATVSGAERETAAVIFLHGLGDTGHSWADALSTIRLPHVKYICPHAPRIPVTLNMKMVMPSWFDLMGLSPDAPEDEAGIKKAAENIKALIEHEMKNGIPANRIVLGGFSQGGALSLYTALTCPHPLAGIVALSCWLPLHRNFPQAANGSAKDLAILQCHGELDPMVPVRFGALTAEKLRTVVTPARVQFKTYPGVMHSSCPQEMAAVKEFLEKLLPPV
UniProt Q9QXV0: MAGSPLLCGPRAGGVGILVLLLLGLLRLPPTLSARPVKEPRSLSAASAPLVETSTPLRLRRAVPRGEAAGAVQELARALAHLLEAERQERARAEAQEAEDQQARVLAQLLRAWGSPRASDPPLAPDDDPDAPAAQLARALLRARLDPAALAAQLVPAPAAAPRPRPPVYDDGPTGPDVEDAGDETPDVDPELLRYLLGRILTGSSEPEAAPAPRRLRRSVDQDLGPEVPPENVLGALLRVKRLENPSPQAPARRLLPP
UniProt Q9QZ15: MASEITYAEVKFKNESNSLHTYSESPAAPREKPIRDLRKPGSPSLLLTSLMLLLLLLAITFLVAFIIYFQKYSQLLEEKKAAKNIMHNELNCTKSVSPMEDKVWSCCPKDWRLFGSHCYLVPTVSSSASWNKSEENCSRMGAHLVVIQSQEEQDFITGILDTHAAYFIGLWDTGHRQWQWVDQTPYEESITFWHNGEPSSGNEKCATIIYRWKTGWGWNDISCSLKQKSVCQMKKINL
UniProt Q9QY36: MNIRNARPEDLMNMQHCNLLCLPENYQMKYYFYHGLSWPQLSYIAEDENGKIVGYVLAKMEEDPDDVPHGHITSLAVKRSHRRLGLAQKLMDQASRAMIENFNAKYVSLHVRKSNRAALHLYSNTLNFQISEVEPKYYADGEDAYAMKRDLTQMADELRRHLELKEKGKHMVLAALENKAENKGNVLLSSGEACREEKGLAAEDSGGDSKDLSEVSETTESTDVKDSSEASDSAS
UniProt Q9WTK2: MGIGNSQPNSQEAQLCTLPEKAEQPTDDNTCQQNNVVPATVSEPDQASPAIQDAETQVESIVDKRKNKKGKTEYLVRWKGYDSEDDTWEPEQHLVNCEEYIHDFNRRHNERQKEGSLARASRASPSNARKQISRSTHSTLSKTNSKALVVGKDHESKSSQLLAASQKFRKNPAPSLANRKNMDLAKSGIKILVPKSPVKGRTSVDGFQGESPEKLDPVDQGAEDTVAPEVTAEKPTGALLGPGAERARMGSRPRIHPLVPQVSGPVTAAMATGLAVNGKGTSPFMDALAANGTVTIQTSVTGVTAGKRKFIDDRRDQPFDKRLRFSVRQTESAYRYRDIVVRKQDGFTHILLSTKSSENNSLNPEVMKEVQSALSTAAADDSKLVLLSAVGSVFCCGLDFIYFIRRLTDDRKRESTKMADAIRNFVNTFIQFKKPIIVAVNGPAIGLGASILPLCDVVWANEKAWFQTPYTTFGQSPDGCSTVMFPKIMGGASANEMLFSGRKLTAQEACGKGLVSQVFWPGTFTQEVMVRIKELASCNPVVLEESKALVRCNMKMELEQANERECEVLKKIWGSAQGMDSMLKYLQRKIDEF
UniProt Q9QZB9, whole entry: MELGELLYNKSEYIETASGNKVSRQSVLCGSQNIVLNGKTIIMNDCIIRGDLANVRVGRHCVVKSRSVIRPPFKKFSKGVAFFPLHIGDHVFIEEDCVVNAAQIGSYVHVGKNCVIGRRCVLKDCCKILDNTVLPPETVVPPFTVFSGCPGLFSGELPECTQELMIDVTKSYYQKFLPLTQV
UniProt Q9QYF1: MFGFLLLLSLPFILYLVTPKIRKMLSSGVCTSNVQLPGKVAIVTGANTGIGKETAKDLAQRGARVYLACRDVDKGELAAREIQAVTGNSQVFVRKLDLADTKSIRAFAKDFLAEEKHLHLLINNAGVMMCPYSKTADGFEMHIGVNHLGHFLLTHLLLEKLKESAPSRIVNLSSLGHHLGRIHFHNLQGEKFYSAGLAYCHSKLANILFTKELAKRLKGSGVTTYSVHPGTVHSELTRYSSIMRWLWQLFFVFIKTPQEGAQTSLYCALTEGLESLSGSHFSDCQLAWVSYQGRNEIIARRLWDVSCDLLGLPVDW
UniProt Q9R0Q1: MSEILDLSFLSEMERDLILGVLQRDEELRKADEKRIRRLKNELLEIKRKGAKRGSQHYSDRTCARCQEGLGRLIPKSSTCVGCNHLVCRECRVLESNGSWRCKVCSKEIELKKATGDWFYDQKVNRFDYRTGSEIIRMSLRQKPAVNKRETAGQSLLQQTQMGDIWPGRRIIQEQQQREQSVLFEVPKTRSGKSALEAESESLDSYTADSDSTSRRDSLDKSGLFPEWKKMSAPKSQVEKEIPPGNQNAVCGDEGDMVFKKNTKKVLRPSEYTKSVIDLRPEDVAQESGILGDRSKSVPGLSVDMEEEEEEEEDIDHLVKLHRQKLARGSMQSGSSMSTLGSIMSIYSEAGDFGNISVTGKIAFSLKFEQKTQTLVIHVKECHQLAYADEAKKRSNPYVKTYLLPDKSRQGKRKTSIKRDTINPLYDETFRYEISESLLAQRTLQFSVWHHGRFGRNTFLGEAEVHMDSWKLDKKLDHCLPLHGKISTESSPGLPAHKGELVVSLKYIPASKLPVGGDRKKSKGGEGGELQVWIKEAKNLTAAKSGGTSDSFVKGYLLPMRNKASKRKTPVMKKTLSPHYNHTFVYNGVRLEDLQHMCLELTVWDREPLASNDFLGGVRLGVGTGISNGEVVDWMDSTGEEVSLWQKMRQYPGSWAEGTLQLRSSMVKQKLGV
UniProt Q9R0H5: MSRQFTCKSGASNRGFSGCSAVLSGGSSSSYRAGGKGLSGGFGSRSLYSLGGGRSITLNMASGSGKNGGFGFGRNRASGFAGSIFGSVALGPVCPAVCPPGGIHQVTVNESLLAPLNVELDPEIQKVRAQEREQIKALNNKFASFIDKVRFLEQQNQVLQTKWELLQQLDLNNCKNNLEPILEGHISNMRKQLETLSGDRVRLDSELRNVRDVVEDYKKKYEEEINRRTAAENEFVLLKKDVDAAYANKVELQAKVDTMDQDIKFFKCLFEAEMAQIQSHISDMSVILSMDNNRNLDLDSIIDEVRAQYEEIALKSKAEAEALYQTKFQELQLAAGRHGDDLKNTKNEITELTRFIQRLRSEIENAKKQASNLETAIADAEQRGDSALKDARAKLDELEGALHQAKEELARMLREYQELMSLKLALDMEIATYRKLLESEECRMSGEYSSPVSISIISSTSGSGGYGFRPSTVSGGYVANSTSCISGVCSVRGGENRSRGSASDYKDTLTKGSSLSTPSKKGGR
UniProt Q9WTP7: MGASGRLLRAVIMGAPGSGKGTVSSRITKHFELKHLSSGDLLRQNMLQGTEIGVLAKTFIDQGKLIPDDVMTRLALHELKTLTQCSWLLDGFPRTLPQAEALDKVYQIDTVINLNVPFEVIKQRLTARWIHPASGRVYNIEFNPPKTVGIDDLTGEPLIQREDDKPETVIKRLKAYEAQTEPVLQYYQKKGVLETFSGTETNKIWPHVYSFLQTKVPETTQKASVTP
UniProt Q9QXG2: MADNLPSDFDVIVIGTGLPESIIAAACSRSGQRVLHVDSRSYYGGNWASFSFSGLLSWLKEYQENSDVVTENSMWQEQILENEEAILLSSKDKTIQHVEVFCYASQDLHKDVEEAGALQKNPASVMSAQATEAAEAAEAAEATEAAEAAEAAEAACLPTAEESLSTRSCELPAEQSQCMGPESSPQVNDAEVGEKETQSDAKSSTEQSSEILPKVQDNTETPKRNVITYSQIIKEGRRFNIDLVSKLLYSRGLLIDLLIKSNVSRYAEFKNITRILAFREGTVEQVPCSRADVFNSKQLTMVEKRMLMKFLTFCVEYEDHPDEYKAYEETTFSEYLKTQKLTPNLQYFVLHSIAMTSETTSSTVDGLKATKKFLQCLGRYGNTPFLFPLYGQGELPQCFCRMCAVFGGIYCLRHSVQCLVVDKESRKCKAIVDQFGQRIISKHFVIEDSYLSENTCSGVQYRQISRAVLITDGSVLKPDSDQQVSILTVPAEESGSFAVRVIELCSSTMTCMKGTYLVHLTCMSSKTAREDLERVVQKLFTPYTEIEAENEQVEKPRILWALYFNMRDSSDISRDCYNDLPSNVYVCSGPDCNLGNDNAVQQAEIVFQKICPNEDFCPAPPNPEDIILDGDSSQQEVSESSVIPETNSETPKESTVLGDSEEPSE

Q: With “UniProt Q9QXW2 (peptide sequence: VFDLGGDTEEEATDPGLHTSGSDHVK, peptide start residue: 279)” as the target, how does the log2 fold change read?
A: 0.188

Q: With “UniProt Q9WTL8 (peptide sequence: EAHSQIEK, peptide start residue: 82)” as the target, how does the log2 fold change read?
A: 0.437

Q: “UniProt Q9R0G6 (peptide sequence: AVAEPGIQLK, peptide start residue: 830)” was tested. Which log2 fold change did it give?
A: -0.118

Q: Which log2 fold change does the source give for “UniProt Q9QXE7 (peptide sequence: GVCIHTLTK, peptide start residue: 445)” here?
A: 0.2

Q: For “UniProt Q9QYY9 (peptide sequence: CKLCLSPLTNLCGK, peptide start residue: 101)”, which log2 fold change is on record?
A: -0.224

Q: Which log2 fold change does the source give for “UniProt Q9QYJ3 (peptide sequence: SIRNEDKILTIEVK, peptide start residue: 196)” here?
A: 0.392

Q: Which log2 fold change does the source give for “UniProt Q9QYF9 (peptide sequence: GNRPVILTYHDIGLNHK, peptide start residue: 52)” here?
A: 0.146

Q: Which log2 fold change does the source give for “UniProt Q9WV70 (peptide sequence: DRDPEFYK, peptide start residue: 80)” here?
A: -0.512

Q: “UniProt Q9R0G7 (peptide sequence: DGESEKEHEKEGEEGYGK, peptide start residue: 1133)” was tested. Which log2 fold change did it give?
A: 0.56

Q: How did the log2 fold change turn out when “UniProt Q9R269 (peptide sequence: NITTIDSGTHLNSR, peptide start residue: 1597)” was run?
A: -0.264

Q: How did the log2 fold change turn out when “UniProt Q9WV74 (peptide sequence: STPVYHASR, peptide start residue: 146)” was run?
A: -0.0518

Q: Which log2 fold change does the source give for “UniProt Q9QZE5 (peptide sequence: TLEEAVGNIVK, peptide start residue: 796)” here?
A: -0.539

Q: How did the log2 fold change turn out when “UniProt Q9WTX2 (peptide sequence: LESFMETGKGASK, peptide start residue: 165)” was run?
A: -0.302

Q: With “UniProt Q9WTL7 (peptide sequence: YICPHAPR, peptide start residue: 54)” as the target, how does the log2 fold change read?
A: -0.228

Q: With “UniProt Q9WTM5 (peptide sequence: VYSLFLDESR, peptide start residue: 429)” as the target, how does the log2 fold change read?
A: -0.311

Q: “UniProt Q9R1C7 (peptide sequence: SMWTEHK, peptide start residue: 144)” was tested. Which log2 fold change did it give?
A: 0.134

Q: “UniProt Q9WV92 (peptide sequence: SLDGASVSENHEIYMK, peptide start residue: 451)” was tested. Which log2 fold change did it give?
A: 0.366

Q: “UniProt Q9QXV0 (peptide sequence: GEAAGAVQELAR, peptide start residue: 66)” was tested. Which log2 fold change did it give?
A: -0.371

Q: “UniProt Q9QZ15 (peptide sequence: FKNESNSLHTYSESPAAPR, peptide start residue: 12)” was tested. Which log2 fold change did it give?
A: -0.142

Q: How did the log2 fold change turn out when “UniProt Q9QY36 (peptide sequence: YVSLHVR, peptide start residue: 106)” was run?
A: 0.215

Q: Which log2 fold change does the source give for “UniProt Q9WTK2 (peptide sequence: ALVVGKDHESK, peptide start residue: 147)” here?
A: -0.778

Q: How did the log2 fold change turn out when “UniProt Q9R0B7 (peptide sequence: GSEEPEGREPDGVR, peptide start residue: 22)” was run?
A: 0.472

Q: How did the log2 fold change turn out when “UniProt Q9WU00 (peptide sequence: VFGAAPLENVVR, peptide start residue: 146)” was run?
A: 0.424

Q: “UniProt Q9QXK3 (peptide sequence: LFQSNDQTLR, peptide start residue: 76)” was tested. Which log2 fold change did it give?
A: -0.375

Q: How did the log2 fold change turn out when “UniProt Q9R190 (peptide sequence: TPTQLEGAAR, peptide start residue: 406)” was run?
A: 0.42

Q: Which log2 fold change does the source give for “UniProt Q9QZB9 (peptide sequence: SEYIETASGNK, peptide start residue: 11)” here?
A: -0.459

Q: With “UniProt Q9R1E6 (peptide sequence: NKLEELNKR, peptide start residue: 576)” as the target, how does the log2 fold change read?
A: 0.205

Q: “UniProt Q9R0X4 (peptide sequence: IFGGFLMR, peptide start residue: 310)” was tested. Which log2 fold change did it give?
A: 0.261

Q: For “UniProt Q9QYF1 (peptide sequence: IHFHNLQGEK, peptide start residue: 182)”, which log2 fold change is on record?
A: 0.534

Q: With “UniProt Q9WTX8 (peptide sequence: LHEENTHLR, peptide start residue: 262)” as the target, how does the log2 fold change read?
A: -0.308

Q: For “UniProt Q9R0Q1 (peptide sequence: SSTCVGCNHLVCRECR, peptide start residue: 77)”, which log2 fold change is on record?
A: 0.231

Q: “UniProt Q9R0H5 (peptide sequence: TAAENEFVLLKK, peptide start residue: 182)” was tested. Which log2 fold change did it give?
A: -0.773

Q: For “UniProt Q9QYI3 (peptide sequence: ALEFAPACHR, peptide start residue: 168)”, which log2 fold change is on record?
A: 0.348

Q: “UniProt Q9WTP7 (peptide sequence: AVIMGAPGSGKGTVSSR, peptide start residue: 10)” was tested. Which log2 fold change did it give?
A: 0.108

Q: How did the log2 fold change turn out when “UniProt Q9WTR1 (peptide sequence: NSASEEDHLPLQVLQSH, peptide start residue: 740)” was run?
A: -0.0387

Q: With “UniProt Q9QZS8 (peptide sequence: VHAPSATPSTSAQPASPVAR, peptide start residue: 420)” as the target, how does the log2 fold change read?
A: -0.189

Q: How did the log2 fold change turn out when “UniProt Q9WTN0 (peptide sequence: YLLQLPGK, peptide start residue: 18)” was run?
A: 0.13

Q: With “UniProt Q9QXG2 (peptide sequence: NVITYSQIIK, peptide start residue: 225)” as the target, how does the log2 fold change read?
A: -0.559

Q: Which log2 fold change does the source give for “UniProt Q9QXC1 (peptide sequence: LVVLPFPGKEQR, peptide start residue: 359)” here?
A: 0.133

Q: With “UniProt Q9R1A8 (peptide sequence: SVLDKDRK, peptide start residue: 687)” as the target, how does the log2 fold change read?
A: 0.575

— the supplement of paper PMC12819154, “High-throughput peptide-centric local stability assay extends protein–ligand identification to membrane proteins, tissues and bacteria” (Nature Structural & Molecular Biology, 2025)
